# Results are given in words; binding and its absence hold for the method and conditions named. Binding seen in cells or lysates may run through a third protein. Some entries that bind do so weakly or less than the wild type.
# Sequences of proteins named here, by UniProt entry; tags and fusion partners are left off.
# UniProt P06748: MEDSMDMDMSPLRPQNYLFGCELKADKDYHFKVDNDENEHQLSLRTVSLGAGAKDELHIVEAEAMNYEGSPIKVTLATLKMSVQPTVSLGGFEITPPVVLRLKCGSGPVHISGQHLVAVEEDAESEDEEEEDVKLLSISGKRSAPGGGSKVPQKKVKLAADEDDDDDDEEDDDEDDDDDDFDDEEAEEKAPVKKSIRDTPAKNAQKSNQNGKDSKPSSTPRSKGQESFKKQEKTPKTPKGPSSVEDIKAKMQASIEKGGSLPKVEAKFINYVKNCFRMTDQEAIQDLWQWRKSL
# Columns and labels:
# [1] = target: T1, Protein tyrosine phosphatase non-receptor type 14 (PTPN14) (human (endogenous in HepG2)) (UniProt Q15678); assay: co-IP; total lysate of HepG2 cells without hypoxia (0 h); precipitated with PTPN14 antibody overnight, protein-G or protein-A sepharose, washed five times in PBS; blotted for NPM1 and PTPN14
# T1 sequence: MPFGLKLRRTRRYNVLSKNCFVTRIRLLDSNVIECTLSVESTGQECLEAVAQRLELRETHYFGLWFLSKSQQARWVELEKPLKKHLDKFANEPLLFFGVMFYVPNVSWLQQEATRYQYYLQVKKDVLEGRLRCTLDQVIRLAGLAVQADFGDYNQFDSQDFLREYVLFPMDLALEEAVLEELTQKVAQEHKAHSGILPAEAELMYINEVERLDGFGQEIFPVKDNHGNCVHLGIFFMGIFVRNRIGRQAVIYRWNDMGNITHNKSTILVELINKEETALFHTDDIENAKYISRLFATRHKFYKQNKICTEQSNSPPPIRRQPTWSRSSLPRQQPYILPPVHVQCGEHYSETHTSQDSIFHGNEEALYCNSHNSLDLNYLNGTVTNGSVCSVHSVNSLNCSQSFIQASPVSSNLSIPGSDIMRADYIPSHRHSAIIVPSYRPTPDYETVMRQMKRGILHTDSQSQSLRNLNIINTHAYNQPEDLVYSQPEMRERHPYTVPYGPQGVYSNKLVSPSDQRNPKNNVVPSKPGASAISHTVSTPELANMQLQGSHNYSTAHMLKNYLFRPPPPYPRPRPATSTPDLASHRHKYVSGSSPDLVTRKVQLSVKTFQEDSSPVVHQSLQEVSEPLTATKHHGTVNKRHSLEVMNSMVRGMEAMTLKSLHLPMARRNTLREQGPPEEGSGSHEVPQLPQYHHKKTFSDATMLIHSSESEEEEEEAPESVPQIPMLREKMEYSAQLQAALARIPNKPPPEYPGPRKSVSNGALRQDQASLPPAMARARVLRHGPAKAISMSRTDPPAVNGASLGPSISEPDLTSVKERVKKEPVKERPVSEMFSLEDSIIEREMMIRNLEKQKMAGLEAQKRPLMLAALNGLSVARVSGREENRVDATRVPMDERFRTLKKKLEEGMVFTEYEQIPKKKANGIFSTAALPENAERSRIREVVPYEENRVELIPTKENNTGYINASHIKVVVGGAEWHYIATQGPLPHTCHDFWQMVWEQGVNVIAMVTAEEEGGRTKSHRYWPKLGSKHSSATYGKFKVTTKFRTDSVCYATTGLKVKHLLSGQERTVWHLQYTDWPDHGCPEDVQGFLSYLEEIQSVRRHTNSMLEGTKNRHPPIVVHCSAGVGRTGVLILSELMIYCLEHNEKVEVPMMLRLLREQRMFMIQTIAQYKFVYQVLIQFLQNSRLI
# [2] = target: T1, Protein tyrosine phosphatase non-receptor type 14 (PTPN14) (human (endogenous in HepG2)); assay: co-IP; total lysate of HepG2 cells after hypoxia (2% O2) for 24 h; precipitated with PTPN14 antibody overnight, protein-G or protein-A sepharose, washed five times in PBS; blotted for NPM1 and PTPN14
substance,measurement,setting,value
Nucleophosmin (NPM1/B23) (from UniProt P06748 1-294),binding,[1],no binding (condition: without hypoxia (0 h))
same,binding,[2],binds

# — publication PMC8822852
